According to the supplement of paper PMC10849652:
The list shows a part of the results.

Protein sequences, listed by entry. Tags and fused reporters are not part of them. Lines headed by an entry give the natural chain unless they say otherwise; changes in a name come on top.
UniProt P49459, whole entry, looked up: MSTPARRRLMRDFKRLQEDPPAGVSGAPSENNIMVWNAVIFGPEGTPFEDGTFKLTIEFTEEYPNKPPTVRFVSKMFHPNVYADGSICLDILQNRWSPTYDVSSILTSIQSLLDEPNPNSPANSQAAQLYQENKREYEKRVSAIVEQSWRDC
UniProt Q15631: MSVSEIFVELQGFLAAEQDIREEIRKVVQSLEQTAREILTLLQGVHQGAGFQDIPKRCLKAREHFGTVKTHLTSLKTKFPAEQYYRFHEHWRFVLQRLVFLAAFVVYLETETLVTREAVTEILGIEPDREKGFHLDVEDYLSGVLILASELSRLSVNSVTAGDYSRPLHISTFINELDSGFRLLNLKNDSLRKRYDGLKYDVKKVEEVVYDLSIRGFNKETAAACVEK
UniProt P68363, whole entry, looked up: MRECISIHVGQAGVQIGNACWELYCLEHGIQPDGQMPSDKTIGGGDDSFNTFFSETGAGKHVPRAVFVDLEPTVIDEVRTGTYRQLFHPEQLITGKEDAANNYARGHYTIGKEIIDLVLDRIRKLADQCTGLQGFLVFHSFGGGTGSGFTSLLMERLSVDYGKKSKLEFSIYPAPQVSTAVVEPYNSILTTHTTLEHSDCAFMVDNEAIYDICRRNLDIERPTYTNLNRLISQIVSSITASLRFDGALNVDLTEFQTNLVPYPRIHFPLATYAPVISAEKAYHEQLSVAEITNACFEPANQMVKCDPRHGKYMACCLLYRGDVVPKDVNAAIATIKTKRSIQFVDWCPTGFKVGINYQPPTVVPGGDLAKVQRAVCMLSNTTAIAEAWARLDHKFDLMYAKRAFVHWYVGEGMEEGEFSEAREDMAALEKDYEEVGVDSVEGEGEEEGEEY
UniProt O14817: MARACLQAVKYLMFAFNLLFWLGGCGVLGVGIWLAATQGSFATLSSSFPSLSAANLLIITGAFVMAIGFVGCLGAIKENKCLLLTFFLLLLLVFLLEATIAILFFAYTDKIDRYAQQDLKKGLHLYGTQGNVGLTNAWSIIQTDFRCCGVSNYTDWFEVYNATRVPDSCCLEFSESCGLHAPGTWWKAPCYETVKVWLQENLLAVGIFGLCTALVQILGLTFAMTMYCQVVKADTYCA
UniProt Q9NY65, whole entry, looked up: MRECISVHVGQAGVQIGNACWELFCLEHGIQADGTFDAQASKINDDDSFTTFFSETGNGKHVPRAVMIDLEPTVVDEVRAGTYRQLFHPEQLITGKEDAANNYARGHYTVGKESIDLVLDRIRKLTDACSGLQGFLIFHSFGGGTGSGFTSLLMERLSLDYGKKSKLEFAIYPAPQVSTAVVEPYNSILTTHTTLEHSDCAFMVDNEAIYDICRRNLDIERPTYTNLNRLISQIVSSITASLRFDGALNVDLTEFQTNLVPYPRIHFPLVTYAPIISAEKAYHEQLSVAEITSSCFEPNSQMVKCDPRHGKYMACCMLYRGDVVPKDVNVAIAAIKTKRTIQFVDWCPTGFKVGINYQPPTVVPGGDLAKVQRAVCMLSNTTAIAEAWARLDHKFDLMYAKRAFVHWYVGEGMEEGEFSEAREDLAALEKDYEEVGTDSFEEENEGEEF
UniProt Q9BSL1: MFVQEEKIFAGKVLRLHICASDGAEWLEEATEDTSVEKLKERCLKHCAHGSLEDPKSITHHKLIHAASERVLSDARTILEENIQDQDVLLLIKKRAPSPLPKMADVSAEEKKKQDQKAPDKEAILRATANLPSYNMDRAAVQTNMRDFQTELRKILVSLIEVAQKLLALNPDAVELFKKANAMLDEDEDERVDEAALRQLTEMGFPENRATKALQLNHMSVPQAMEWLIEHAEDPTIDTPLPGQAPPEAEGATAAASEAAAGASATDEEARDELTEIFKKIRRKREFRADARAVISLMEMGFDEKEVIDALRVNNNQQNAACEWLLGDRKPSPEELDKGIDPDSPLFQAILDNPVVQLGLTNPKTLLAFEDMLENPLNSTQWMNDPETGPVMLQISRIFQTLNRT
UniProt Q6PGP7, whole entry, looked up: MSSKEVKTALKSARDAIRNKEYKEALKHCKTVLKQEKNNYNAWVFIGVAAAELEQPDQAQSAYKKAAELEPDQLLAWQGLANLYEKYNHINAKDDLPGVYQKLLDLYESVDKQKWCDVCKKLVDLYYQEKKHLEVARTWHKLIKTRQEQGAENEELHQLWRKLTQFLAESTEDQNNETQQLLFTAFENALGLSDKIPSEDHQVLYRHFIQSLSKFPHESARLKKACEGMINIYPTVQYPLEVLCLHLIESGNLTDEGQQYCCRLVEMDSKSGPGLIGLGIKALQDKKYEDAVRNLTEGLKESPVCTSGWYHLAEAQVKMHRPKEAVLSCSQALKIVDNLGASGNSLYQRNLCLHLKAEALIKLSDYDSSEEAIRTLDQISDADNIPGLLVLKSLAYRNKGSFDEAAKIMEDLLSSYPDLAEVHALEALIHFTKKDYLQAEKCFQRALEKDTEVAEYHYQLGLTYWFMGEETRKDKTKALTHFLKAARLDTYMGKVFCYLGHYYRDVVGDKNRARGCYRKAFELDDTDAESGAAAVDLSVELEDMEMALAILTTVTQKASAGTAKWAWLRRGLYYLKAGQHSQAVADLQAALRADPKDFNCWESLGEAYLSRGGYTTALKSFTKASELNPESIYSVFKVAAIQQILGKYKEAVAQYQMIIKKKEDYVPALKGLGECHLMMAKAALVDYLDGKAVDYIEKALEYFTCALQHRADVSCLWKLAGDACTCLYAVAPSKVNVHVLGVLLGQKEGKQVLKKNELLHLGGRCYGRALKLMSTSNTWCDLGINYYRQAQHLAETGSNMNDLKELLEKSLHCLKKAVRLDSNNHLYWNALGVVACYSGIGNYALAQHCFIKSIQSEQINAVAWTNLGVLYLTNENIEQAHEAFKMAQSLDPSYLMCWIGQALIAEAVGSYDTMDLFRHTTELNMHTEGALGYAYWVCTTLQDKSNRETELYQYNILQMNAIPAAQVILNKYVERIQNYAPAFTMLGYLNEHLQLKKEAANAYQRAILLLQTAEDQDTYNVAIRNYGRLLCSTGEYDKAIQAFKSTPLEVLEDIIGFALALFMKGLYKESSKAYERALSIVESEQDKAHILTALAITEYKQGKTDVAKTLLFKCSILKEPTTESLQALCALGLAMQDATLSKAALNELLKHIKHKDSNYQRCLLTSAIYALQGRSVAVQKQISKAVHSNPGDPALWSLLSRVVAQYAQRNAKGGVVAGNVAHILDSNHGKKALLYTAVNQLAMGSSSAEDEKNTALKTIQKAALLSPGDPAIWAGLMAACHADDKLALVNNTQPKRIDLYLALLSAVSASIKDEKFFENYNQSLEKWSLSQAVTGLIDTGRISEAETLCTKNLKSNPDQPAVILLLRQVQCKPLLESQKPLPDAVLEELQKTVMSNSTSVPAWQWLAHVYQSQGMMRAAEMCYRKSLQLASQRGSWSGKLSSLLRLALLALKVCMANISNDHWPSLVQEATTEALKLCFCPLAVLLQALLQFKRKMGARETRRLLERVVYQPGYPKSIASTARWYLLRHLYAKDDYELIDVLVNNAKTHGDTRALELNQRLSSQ
UniProt Q9NNW7, whole entry, looked up: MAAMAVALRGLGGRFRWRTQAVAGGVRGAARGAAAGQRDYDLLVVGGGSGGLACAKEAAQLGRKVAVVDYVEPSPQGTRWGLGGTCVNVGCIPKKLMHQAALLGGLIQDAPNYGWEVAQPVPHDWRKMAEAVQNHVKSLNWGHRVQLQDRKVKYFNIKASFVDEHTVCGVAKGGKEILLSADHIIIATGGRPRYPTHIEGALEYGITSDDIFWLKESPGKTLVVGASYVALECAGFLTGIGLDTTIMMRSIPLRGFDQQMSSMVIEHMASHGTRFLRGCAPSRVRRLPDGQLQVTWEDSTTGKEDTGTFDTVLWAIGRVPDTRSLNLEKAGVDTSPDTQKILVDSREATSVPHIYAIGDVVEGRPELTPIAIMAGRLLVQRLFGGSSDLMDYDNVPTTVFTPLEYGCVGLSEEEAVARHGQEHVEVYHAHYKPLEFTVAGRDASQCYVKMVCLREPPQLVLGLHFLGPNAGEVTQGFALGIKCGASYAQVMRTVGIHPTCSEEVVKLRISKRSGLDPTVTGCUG
UniProt O60637: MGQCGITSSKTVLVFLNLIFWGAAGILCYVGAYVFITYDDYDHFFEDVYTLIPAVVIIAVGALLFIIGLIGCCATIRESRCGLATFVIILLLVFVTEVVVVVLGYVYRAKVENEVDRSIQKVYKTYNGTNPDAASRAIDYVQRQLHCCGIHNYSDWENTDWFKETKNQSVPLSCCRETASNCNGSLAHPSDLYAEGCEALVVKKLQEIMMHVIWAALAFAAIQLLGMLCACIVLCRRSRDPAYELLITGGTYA
UniProt Q13885, whole entry, looked up: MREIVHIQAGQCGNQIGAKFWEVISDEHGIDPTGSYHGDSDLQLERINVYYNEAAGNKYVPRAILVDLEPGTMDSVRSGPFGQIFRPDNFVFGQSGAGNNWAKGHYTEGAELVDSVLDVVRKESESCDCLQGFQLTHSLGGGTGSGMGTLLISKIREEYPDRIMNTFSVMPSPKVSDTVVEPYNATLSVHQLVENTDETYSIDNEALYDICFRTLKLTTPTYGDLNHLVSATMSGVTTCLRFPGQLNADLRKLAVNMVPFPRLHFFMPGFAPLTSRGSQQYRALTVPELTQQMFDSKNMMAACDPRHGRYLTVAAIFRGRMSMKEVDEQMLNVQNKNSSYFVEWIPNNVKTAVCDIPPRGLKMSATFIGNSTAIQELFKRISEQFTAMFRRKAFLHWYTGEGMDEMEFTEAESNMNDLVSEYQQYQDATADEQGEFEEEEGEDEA
UniProt Q86TV6: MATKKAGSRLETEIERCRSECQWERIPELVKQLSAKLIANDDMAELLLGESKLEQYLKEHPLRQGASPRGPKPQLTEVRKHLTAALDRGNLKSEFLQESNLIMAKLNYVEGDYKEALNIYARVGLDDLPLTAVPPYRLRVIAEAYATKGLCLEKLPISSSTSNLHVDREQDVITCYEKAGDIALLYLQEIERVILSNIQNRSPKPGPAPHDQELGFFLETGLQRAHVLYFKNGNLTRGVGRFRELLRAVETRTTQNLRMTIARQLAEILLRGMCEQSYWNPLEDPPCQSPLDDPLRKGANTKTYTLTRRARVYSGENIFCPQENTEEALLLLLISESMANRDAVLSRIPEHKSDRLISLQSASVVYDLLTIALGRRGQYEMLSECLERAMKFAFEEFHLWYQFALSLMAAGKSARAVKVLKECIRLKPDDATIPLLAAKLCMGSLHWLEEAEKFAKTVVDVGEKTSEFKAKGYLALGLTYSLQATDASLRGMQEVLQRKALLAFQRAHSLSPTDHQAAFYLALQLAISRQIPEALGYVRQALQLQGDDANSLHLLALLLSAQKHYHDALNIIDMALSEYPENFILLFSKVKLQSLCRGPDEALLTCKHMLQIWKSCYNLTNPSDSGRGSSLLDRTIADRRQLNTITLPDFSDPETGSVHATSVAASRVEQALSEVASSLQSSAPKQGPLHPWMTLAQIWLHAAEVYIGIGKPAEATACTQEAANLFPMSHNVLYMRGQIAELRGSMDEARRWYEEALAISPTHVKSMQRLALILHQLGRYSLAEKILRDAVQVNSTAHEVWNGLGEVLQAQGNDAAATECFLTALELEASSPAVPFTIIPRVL

compound: c1cn2cc(-c3ccc4cn[nH]c4c3)nc(Nc3ccc(N4CCOCC4)cc3)c2n1 [entospletinib]; assay: log2 fold change, soluble protein after heating vs DMSO (PISA); higher = thermal stabilisation; K562 cells, 10 uM, 30 min; active = over 0.2 and 3.5 SD of the protein, either way, in both replicates (recomputed)
Method in brief: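 K562 cells at 2×10^6 cells/mL were treated with 10 μM compound for 30 min. Aliquots were heated for 3 min across 48°C-58°C, pooled, and extracted in PBS with 0.5% NP-40 at 4°C; soluble protein was the supernatant after 21,000xg for 90 min. Soluble protein was quantified by TMTpro 16plex LC-MS/MS with channel sums equalised, and reported as log2 fold change in thermal stability against DMSO controls, with values from duplicates.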

log2 fold change, inactive:
UBE2A (UniProt P49459) 0.077
TSN (UniProt Q15631) -0.023
TUBA1B (UniProt P68363) -0.037
TSPAN4 (UniProt O14817) 0.022
TUBA8 (UniProt Q9NY65) 0.024
UBAC1 (UniProt Q9BSL1) 0
TTC37 (UniProt Q6PGP7) -0.034
TXNRD2 (UniProt Q9NNW7) 0.031
TSPAN3 (UniProt O60637) -0.004
TUBB2A (UniProt Q13885) -0.031
TTC7B isoform 2 (UniProt Q86TV6) 0.038

For convenience, part of the list above.
log2 fold change, inactive:
UBAC1 (UniProt Q9BSL1) 0
TTC37 (UniProt Q6PGP7) -0.034
